Screen size: about 340,000 compounds; about 420 (0.12%) were called active. The source calls these results inconclusive, neither active nor inactive. Calls follow the shape of the dose curve; as a rule, active = well fitted activation curve with a large enough effect; inconclusive = small, poorly fitted or top-dose-only effect, or another doubt; inactive = no such curve, though single readings can be large or run the other way; cell line not stated here.
Assay: qHTS for Agonist of gsp, the Etiologic Mutation Responsible for Fibrous Dysplasia/McCune-Albright Syndrome: qHTS; also: nearly all actives have a fitted effect of over 60% in size
Settings: gsp mutant cells, cAMP HTRF, 30 min
Potency is read from the fitted curve at half-maximal effect.

Compound | Potency
O=[N+]([O-])c1cc([N+](=O)[O-])c(-n2nnc3ccccc32)c([N+](=O)[O-])c1 | inconclusive: 0.891 µM
O=[N+]([O-])c1cc([N+](=O)[O-])c(Nc2nnnn2CCO)c([N+](=O)[O-])c1 | inconclusive: 0.891 µM
CP(=O)(Oc1ccccc1)OC(c1ccccc1)C(F)(F)F (stereo unspecified) | inconclusive: 22.4 µM
Cc1c(NP(C)(=O)Oc2ccc(C(C)C)cc2)c(=O)n(-c2ccccc2)n1C (stereo unspecified) | inconclusive: 50.1 µM
O=[N+]([O-])c1ccc(OP2(=O)COCCO2)cc1 (stereo unspecified) | inconclusive: 5.01 µM
Cc1c(C(c2ccc3c(c2)OCO3)c2c(C)n(C)n(-c3ccccc3)c2=O)c(=O)n(-c2ccccc2)n1C.O=[N+]([O-])c1cc([N+](=O)[O-])c(O)c([N+](=O)[O-])c1 | inconclusive: 12.6 µM
